Test results published in patent US5017557A, “Treatment of infertility with somatotrophin releasing factor” (Industria Farmaceutica Serono S.p.A., priority 1987, dated 1991).

Assay: RIA dosage of GRF immunoreactivity in human follicular and seminal fluid

**Q.** Which “Immunoreactivity to GRF” value (human follicular fluid) does the source give for “GRF: Somatotrophin releasing factor; measured as immunoreactivity by RIA, binding done with iodine labelled human GRF-44” here?
**A.** 60 pg/mL

**Q.** And the “Immunoreactivity to GRF” value (human seminal fluid)?
**A.** 140 pg/mL
